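Recombinant human CYP2D6 and CYP2C9 enzymes turning a pro-luciferin substrate into light, read by luminescence; the incubation time is not stated here. Percent change in enzyme activity at the series' top concentration, where 0 is the no-effect control and more negative values mean stronger inhibition. Calls come from the fitted dose curve: inactive means no well-fitted curve with a large enough effect, even if single readings are sizeable.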

Values are in %. Every entry below has the call inactive. These are entries filed as inactive; the hits of the assay are not listed here.

{"compound": "C[N+](C)(C)CCCCCC[N+](C)(C)C", "tested on / at": "Cytochrome P450 2D6 (Homo sapiens); p450-cyp2d6; at 57.1 µM (top of the series)", "activity (%)": "6.32"}
{"compound": "CN(C)C(=O)Oc1ccc[n+](C)c1", "tested on / at": "Cytochrome P450 2C9 (Homo sapiens); p450-cyp2c9; at 57.1 µM (top of the series)", "activity (%)": "8.609"}
{"compound": "C[C@H](N)[C@H](O)c1ccc(O)c(O)c1", "tested on / at": "Cytochrome P450 2C9 (Homo sapiens); p450-cyp2c9; at 57.1 µM (top of the series)", "activity (%)": "2.878"}
{"compound": "CN1[C@@H]2CC[C@H]1CC(OC(=O)c1cc(Cl)cc(Cl)c1)C2", "stereo": "stereo partly drawn", "tested on / at": "Cytochrome P450 2C9 (Homo sapiens); p450-cyp2c9; at 57.1 µM (top of the series)", "activity (%)": "25"}
{"compound": "c1ccc(CN2CC[C@@]3(CCCNC3)C2)cc1", "tested on / at": "Cytochrome P450 2C9 (Homo sapiens); p450-cyp2c9; at 57.1 µM (top of the series)", "activity (%)": "-27.55"}
{"compound": "COc1ccc2[nH]cc(CCN)c2c1", "tested on / at": "Cytochrome P450 2C9 (Homo sapiens); p450-cyp2c9; at 57.1 µM (top of the series)", "activity (%)": "-15.82"}
{"compound": "NC[C@H](O)c1ccc(O)cc1", "tested on / at": "Cytochrome P450 2C9 (Homo sapiens); p450-cyp2c9; at 25.6 µM (top of the series)", "activity (%)": "8.786"}
{"compound": "CCC(C)(NC(=O)c1ccccn1)C(=O)NC1CCCCC1", "stereo": "stereo not drawn", "tested on / at": "Cytochrome P450 2D6 (Homo sapiens); p450-cyp2d6; at 57.1 µM (top of the series)", "activity (%)": "14.88"}
{"compound": "CCNC[C@H](O)c1cccc(O)c1", "tested on / at": "Cytochrome P450 2C9 (Homo sapiens); p450-cyp2c9; at 25.6 µM (top of the series)", "activity (%)": "13.63"}
{"compound": "CP(=O)(O)CCCN", "tested on / at": "Cytochrome P450 2C9 (Homo sapiens); p450-cyp2c9; at 57.1 µM (top of the series)", "activity (%)": "-15.51"}
{"compound": "CCCCc1ccc(C(=O)O)nc1", "tested on / at": "Cytochrome P450 2C9 (Homo sapiens); p450-cyp2c9; at 57.1 µM (top of the series)", "activity (%)": "0.1195"}
{"compound": "CC(=O)NBr", "tested on / at": "Cytochrome P450 2C9 (Homo sapiens); p450-cyp2c9; at 57.1 µM (top of the series)", "activity (%)": "7.221"}
{"compound": "CC(C)C[C@H](NC(=O)[C@@H](O)[C@H](N)Cc1ccccc1)C(=O)O", "tested on / at": "Cytochrome P450 2D6 (Homo sapiens); p450-cyp2d6; at 57.1 µM (top of the series)", "activity (%)": "7.304"}
{"compound": "O=C(O)[C@@H](O)Cc1ccccn1", "tested on / at": "Cytochrome P450 2D6 (Homo sapiens); p450-cyp2d6; at 11.4 µM (top of the series)", "activity (%)": "6.806"}
{"compound": "NC(=O)CN1CCCC1=O", "tested on / at": "Cytochrome P450 2C9 (Homo sapiens); p450-cyp2c9; at 57.1 µM (top of the series)", "activity (%)": "-7.405"}
{"compound": "c1ccc(N2CC[C@@]3(CCCNC3)C2)nc1", "tested on / at": "Cytochrome P450 2C9 (Homo sapiens); p450-cyp2c9; at 57.1 µM (top of the series)", "activity (%)": "-8.033"}
{"compound": "CO[C@H]1COC(=O)CCC[C@@H](C)[C@H](OC)COC(=O)[C@@H](C)NC(=O)C/C=C\\[C@@H]1C", "tested on / at": "Cytochrome P450 2D6 (Homo sapiens); p450-cyp2d6; at 11.4 µM (top of the series)", "activity (%)": "6.882"}
{"compound": "CC[N+](C)(C)c1cccc(O)c1", "tested on / at": "Cytochrome P450 2D6 (Homo sapiens); p450-cyp2d6; at 25.6 µM (top of the series)", "activity (%)": "-3.892"}
{"compound": "O=C(O)CC(c1ccccc1)n1cnnn1", "stereo": "stereo not drawn", "tested on / at": "Cytochrome P450 2D6 (Homo sapiens); p450-cyp2d6; at 57.1 µM (top of the series)", "activity (%)": "-36.14"}

For reference, 2 entries once more:

{"compound": "CCNC[C@H](O)c1cccc(O)c1", "tested on / at": "Cytochrome P450 2C9 (Homo sapiens); p450-cyp2c9; at 25.6 µM (top of the series)", "activity (%)": "13.63"}
{"compound": "O=C(O)[C@@H](O)Cc1ccccn1", "tested on / at": "Cytochrome P450 2D6 (Homo sapiens); p450-cyp2d6; at 11.4 µM (top of the series)", "activity (%)": "6.806"}

Source: PubChem BioAssay AID1851 (NCATS, 2009).